In the supplement of paper PMC10849652:
The other results are listed elsewhere or left out.

Amino acid sequences for entries named in this document (tags omitted). A change or cut given only in a name is not applied to a line headed by its entry.
UniProt Q8WUY3: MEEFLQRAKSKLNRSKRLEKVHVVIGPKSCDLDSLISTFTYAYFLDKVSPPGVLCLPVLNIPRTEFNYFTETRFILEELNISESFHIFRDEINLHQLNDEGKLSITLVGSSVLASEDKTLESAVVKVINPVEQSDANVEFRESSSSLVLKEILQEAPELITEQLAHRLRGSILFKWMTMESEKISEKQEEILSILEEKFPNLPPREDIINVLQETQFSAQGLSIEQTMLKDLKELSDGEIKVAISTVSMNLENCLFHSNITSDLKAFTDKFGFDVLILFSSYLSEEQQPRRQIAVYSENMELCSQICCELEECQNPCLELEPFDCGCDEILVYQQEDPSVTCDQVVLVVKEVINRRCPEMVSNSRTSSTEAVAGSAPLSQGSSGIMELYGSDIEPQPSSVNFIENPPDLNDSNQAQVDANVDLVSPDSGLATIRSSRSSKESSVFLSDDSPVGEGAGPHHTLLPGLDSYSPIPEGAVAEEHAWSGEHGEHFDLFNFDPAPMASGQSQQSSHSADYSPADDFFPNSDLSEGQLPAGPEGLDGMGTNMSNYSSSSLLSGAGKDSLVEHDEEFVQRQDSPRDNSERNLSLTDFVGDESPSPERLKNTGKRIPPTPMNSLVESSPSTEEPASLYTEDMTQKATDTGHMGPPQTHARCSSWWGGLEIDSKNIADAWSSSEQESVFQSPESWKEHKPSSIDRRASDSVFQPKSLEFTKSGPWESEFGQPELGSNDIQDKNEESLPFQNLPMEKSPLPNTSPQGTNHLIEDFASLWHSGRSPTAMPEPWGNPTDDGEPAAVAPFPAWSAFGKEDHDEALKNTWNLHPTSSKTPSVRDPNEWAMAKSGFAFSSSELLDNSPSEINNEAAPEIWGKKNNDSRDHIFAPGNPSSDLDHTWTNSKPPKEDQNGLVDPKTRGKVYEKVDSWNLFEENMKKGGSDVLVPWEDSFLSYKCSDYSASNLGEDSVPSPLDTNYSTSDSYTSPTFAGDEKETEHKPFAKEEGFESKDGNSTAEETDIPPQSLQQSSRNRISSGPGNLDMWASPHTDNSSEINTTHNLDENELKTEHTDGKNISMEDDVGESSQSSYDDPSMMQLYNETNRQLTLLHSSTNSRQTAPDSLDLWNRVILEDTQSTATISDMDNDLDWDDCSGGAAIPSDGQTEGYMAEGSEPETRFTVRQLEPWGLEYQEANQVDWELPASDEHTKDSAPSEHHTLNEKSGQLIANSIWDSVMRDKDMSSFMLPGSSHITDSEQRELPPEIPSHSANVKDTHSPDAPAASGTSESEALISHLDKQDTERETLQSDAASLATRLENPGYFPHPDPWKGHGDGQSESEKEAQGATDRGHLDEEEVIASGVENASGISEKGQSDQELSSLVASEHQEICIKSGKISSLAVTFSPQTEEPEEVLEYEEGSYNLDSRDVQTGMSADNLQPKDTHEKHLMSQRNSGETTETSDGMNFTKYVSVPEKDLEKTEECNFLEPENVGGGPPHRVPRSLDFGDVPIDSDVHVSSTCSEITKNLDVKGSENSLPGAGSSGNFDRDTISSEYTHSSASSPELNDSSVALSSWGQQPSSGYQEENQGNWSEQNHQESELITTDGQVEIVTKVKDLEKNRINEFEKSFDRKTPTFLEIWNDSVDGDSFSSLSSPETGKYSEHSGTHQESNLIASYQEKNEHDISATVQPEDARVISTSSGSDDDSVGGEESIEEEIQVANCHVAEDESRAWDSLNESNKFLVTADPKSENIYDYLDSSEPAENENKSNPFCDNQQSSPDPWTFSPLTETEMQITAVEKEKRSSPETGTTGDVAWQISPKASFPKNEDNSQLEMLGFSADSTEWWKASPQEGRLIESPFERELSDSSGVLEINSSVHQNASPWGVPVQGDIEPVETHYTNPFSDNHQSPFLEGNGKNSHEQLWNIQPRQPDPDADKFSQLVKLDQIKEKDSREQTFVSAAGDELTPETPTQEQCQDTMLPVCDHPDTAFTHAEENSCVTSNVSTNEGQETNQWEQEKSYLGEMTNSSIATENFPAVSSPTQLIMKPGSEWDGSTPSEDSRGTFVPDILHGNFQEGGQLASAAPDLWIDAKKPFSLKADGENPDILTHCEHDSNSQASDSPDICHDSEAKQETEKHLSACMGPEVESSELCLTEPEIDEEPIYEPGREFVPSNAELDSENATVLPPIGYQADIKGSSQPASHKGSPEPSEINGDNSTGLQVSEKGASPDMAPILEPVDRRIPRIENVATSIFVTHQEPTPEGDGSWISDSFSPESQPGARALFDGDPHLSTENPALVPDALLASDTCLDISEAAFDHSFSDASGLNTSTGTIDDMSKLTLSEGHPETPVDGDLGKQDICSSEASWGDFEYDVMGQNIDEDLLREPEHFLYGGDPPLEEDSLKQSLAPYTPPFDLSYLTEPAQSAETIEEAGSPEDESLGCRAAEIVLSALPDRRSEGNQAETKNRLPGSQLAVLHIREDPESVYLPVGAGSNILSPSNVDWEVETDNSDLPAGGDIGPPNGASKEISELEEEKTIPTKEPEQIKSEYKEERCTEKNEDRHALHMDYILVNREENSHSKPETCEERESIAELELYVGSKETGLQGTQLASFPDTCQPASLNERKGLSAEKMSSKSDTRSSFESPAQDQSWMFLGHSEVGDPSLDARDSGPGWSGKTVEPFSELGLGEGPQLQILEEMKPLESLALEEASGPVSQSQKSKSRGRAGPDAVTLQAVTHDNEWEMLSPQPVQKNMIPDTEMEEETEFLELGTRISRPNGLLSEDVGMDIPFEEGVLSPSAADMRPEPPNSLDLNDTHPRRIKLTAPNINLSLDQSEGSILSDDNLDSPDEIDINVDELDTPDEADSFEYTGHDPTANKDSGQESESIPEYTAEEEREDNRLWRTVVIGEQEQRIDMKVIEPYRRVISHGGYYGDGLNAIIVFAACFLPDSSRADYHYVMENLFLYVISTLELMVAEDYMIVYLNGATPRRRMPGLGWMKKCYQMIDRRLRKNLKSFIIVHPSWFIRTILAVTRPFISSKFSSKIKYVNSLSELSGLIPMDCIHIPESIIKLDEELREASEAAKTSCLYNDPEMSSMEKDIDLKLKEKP
UniProt A2A3K4: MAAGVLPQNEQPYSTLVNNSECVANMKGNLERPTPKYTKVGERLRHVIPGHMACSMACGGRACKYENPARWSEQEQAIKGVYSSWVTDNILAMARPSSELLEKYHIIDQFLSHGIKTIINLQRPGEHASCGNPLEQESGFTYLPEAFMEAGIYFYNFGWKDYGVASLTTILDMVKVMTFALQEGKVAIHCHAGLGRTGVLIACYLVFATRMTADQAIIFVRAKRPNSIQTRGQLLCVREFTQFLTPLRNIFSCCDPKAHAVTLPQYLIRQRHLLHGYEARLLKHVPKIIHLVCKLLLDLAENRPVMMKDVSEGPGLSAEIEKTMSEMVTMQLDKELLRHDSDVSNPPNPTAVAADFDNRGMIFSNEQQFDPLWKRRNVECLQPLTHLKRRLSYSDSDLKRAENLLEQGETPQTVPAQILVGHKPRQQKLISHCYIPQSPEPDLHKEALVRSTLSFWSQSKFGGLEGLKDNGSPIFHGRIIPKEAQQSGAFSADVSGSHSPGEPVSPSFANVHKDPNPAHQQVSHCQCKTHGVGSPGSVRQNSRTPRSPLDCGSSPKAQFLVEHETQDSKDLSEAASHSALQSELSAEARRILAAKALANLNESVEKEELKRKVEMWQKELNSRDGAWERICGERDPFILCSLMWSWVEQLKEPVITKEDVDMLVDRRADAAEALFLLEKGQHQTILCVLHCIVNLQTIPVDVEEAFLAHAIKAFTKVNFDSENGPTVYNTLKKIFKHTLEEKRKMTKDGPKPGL
UniProt Q8WV60: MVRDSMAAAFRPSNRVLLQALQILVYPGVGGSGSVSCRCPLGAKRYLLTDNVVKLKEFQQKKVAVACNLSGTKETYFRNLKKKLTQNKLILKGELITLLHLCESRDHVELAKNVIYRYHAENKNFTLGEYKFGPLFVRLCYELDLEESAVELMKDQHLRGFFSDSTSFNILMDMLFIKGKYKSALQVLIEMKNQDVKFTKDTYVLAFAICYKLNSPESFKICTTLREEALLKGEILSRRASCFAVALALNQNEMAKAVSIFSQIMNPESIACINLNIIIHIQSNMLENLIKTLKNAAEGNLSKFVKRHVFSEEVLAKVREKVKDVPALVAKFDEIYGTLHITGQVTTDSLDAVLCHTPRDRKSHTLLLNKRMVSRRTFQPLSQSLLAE
UniProt Q15185: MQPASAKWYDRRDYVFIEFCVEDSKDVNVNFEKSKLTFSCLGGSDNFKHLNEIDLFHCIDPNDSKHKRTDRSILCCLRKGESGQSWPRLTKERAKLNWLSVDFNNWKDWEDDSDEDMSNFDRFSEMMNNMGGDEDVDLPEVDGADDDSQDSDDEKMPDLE
UniProt O14668: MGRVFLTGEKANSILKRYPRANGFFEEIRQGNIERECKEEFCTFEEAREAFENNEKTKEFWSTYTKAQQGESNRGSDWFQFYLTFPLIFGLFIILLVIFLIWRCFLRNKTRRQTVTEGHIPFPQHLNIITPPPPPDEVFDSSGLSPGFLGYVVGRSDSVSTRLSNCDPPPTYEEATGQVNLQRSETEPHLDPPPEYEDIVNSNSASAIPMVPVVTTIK
UniProt Q14289, whole entry, looked up: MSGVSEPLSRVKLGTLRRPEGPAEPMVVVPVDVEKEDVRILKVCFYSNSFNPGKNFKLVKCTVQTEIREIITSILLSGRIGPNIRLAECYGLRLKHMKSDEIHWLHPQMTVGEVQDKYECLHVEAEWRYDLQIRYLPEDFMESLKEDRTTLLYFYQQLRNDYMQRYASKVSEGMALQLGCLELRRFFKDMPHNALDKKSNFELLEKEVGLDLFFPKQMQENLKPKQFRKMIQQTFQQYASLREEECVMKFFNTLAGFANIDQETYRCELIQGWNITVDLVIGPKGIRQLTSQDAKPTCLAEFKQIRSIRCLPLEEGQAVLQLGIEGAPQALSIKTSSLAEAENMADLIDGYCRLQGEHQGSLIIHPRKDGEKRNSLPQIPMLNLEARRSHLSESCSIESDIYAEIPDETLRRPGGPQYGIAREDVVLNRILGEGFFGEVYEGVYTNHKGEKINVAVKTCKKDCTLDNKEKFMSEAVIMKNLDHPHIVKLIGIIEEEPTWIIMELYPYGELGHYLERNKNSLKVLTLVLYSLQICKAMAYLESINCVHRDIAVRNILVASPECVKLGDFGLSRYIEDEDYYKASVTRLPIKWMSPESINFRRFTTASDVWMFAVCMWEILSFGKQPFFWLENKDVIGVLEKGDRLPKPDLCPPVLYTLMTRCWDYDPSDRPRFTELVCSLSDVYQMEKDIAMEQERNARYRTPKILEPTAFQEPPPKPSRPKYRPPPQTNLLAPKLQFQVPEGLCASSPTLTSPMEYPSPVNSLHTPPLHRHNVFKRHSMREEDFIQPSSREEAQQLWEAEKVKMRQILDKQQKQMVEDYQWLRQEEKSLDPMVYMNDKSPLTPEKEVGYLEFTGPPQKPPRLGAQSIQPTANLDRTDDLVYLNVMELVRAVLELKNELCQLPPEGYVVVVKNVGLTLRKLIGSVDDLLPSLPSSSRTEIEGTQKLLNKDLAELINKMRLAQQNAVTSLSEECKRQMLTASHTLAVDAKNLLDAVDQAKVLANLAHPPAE
UniProt P07478, whole entry, looked up: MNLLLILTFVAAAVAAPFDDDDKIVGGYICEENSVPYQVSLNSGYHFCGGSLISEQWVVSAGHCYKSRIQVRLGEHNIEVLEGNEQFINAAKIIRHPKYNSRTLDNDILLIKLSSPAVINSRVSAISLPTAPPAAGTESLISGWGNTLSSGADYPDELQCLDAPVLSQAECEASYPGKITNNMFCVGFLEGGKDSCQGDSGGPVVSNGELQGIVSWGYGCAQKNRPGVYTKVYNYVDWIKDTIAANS
UniProt P06454: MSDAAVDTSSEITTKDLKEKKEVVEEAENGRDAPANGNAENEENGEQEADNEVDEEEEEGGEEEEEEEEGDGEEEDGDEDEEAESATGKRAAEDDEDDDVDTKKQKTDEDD
UniProt P43115: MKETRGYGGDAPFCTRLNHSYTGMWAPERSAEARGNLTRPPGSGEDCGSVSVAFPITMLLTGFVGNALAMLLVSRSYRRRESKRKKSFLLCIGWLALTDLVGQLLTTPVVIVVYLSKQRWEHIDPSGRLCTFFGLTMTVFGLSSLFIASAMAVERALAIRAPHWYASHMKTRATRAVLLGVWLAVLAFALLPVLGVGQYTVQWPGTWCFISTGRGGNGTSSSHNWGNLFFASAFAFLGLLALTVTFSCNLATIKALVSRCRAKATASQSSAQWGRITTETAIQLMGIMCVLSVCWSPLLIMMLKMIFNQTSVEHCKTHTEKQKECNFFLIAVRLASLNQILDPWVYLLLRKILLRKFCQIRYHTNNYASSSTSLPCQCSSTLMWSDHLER
UniProt O75365, whole entry, looked up: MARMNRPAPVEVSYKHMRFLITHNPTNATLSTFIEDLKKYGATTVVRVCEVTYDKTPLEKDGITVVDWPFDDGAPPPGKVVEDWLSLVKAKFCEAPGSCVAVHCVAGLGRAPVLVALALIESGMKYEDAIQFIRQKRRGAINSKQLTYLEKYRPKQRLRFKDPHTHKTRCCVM

Assays:
Test in all cases: log2 fold change, soluble protein after heating vs DMSO (PISA); higher = thermal stabilisation; K562 lysate, 10 uM; active = over 0.2 and 3.5 SD of the protein, either way, in both replicates (recomputed)
[1] = compound: COc1cc2nc(-c3cc(F)ccc3O)nc(N[C@@H]3CNC[C@H]3C(C)(C)O)c2cc1OC
Method in brief: (§1)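 K562 pellets were dounce-homogenised in PBS pH 7.4 with 1 mM MgCl2, and the crude extract at 1 mg/mL protein was treated with 10 μM compound for 30 min. Aliquots were heated for 3 min across 48°C-58°C, pooled, and brought to 0.5% NP-40 at 4°C; soluble protein was the supernatant after 21,000xg for 90 min. Soluble protein was quantified by TMTpro 16plex LC-MS/MS with channel sums equalised, and reported as log2 fold change in thermal stability against DMSO controls, with values from duplicates.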

lapatinib = compound: CS(=O)(=O)CCNCc1ccc(-c2ccc3ncnc(Nc4ccc(OCc5cccc(F)c5)c(Cl)c4)c3c2)o1 [lapatinib]
Method in brief: as §1

Tubastatin A = compound: CN1CCc2c(c3ccccc3n2Cc2ccc(C(=O)NO)cc2)C1 [Tubastatin A]
Method in brief: as §1

[2] = compound: CNC(=O)C1=CC=CC=C1NC2=NC(=NC=C2Cl)NC3=C(C=C(C=C3)N4CCOCC4)OC
Method in brief: as §1

defactinib = compound: CNC(=O)c1ccc(Nc2ncc(C(F)(F)F)c(NCc3nccnc3N(C)S(C)(=O)=O)n2)cc1 [defactinib]
Method in brief: as §1

[3] = compound: CNc1nc(-c2ccc3c(N)n[nH]c3c2)cc(N2C[C@@H](C(=O)NC3CCCCC3)CC[C@H]2C)n1
Method in brief: as §1

alisertib = compound: COc1cc(Nc2ncc3c(n2)-c2ccc(Cl)cc2C(c2c(F)cccc2OC)=NC3)ccc1C(=O)O [alisertib]
Method in brief: as §1

gefitinib = compound: COc1cc2ncnc(Nc3ccc(F)c(Cl)c3)c2cc1OCCCN1CCOCC1 [gefitinib]
Method in brief: as §1

pictilisib = compound: CS(=O)(=O)N1CCN(Cc2cc3nc(-c4cccc5[nH]ncc45)nc(N4CCOCC4)c3s2)CC1 [pictilisib]
Method in brief: as §1

crizotinib = compound: C[C@@H](Oc1cc(-c2cnn(C3CCNCC3)c2)cnc1N)c1c(Cl)ccc(F)c1Cl [crizotinib]
Method in brief: as §1

duvelisib = compound: C[C@H](Nc1ncnc2nc[nH]c12)c1cc2cccc(Cl)c2c(=O)n1-c1ccccc1 [duvelisib]
Method in brief: as §1

doramapimod = compound: Cc1ccc(-n2nc(C(C)(C)C)cc2NC(=O)Nc2ccc(OCCN3CCOCC3)c3ccccc23)cc1 [doramapimod]
Method in brief: as §1

bafetinib = compound: Cc1ccc(NC(=O)c2ccc(CN3CC[C@H](N(C)C)C3)c(C(F)(F)F)c2)cc1Nc1nccc(-c2cncnc2)n1 [bafetinib]
Method in brief: as §1

encorafenib = compound: COC(=O)N[C@@H](C)CNc1nccc(-c2cn(C(C)C)nc2-c2cc(Cl)cc(NS(C)(=O)=O)c2F)n1 [encorafenib]
Method in brief: as §1

[4] = compound: COC(=O)[C@H](CCSC)NC(=O)C1=C(C=C(C=C1)NC[C@H](CS)N)C2=CC=CC=C2
Method in brief: as §1

tozasertib = compound: Cc1cc(Nc2cc(N3CCN(C)CC3)nc(Sc3ccc(NC(=O)C4CC4)cc3)n2)n[nH]1 [tozasertib]
Method in brief: as §1

alvocidib = compound: CN1CC[C@H](c2c(O)cc(O)c3c(=O)cc(-c4ccccc4Cl)oc23)[C@H](O)C1 [alvocidib]
Method in brief: as §1

[5] = compound: C[C@H](C1=CC=C(C=C1)C(=O)NC2=C3C=CNC3=NC=C2)N
Method in brief: as §1

gandotinib = compound: Cc1cc(Nc2cc(CN3CCOCC3)c3nc(C)c(Cc4ccc(Cl)cc4F)n3n2)n[nH]1 [gandotinib]
Method in brief: as §1

[6] = compound: Cc1cccc(CC(=O)N2CCc3c2ccc(-c2cn(C)c4ncnc(N)c24)c3F)n1
Method in brief: as §1

Measured: log2 fold change

PTPN11, A0A0U1RRI0
inactive: [1] -0.113 | lapatinib 0.019

PRUNE2 isoform 3 (UniProt Q8WUY3)
inactive: Tubastatin A 0.016 | [2] -0.023 | defactinib 0.103 | [3] 0.146 | alisertib -0.066 | [1] -0.029 | gefitinib -0.151 | lapatinib 0.011 | pictilisib 0.028 | crizotinib 0.032 | duvelisib -0.004 | doramapimod -0.094 | bafetinib 0.159

PTPDC1 isoform 2 (UniProt A2A3K4)
inactive: [2] 0.045 | defactinib 0.165 | alisertib 0.068 | gefitinib 0.11 | pictilisib -0.075 | crizotinib 0.007 | doramapimod 0.029 | bafetinib -0.279

PSMD1, A0A087WW66
inactive: [1] 0.037 | lapatinib -0.116 | pictilisib -0.271 | bafetinib 0.182

PTCD2 (UniProt Q8WV60)
inactive: Tubastatin A -0.178 | [2] -0.079 | defactinib -0.046 | [3] 0.062 | encorafenib -0.081 | [4] 0 | alisertib 0.101 | [1] 0.243 | gefitinib 0.07 | lapatinib -0.088 | crizotinib -0.11 | duvelisib -0.032 | tozasertib 0.016 | doramapimod 0.024

Random excerpt: 2 records from the list
PRUNE2 isoform 3 (UniProt Q8WUY3)
inactive: Tubastatin A 0.016 | [2] -0.023 | defactinib 0.103 | [3] 0.146 | alisertib -0.066 | [1] -0.029 | gefitinib -0.151 | lapatinib 0.011 | pictilisib 0.028 | crizotinib 0.032 | duvelisib -0.004 | doramapimod -0.094 | bafetinib 0.159

PTPN11, A0A0U1RRI0
inactive: [1] -0.113 | lapatinib 0.019

Next results follow.

PTGES3 isoform 4 (UniProt Q15185)
inactive: Tubastatin A -0.311 | pictilisib -0.1 | bafetinib 0.046

PTK2 isoform 2 (UniProt Q05397)
inactive: [2] 0.003 | [3] 0.018 | encorafenib -0.058 | [4] -0.129 | [1] 0.053 | lapatinib 0.049 | pictilisib 0.067 | duvelisib 0.298 | tozasertib 0.125 | bafetinib -0.087

PRRG1 (UniProt O14668)
inactive: Tubastatin A -0.032

PUM2 (UniProt C9JW01)
inactive: alvocidib -0.106 | [5] -0.163 | gandotinib 0.204 | [6] 0.463

PSMA3 (UniProt H0YJ03)
inactive: Tubastatin A 0.106 | [2] 0.073 | defactinib -0.185 | [3] 0.126 | encorafenib 0 | [4] -0.007 | [1] 0.137 | lapatinib 0.002 | crizotinib -0.078 | duvelisib -0.052 | tozasertib -0.034 | doramapimod -0.08

PTK2B (UniProt Q14289)
active: [2] 0.401 | gandotinib 0.385
inactive: Tubastatin A -0.071 | defactinib 0.315 | [3] -0.063 | encorafenib -0.048 | [4] -0.007 | alisertib 0.093 | [1] 0.103 | gefitinib -0.056 | lapatinib -0.075 | pictilisib -0.043 | [5] -0.026 | duvelisib -0.034 | tozasertib 0.019 | bafetinib 0.098 | [6] -0.05

PRRC2B (UniProt H0Y412)
inactive: Tubastatin A 0.009 | [2] 0.095

PRSS2 (UniProt P07478)
inactive: alvocidib -0.013 | [3] -0.049 | [1] -0.106 | lapatinib 0.126 | [5] -0.046 | duvelisib 0.141 | gandotinib -0.01 | [6] -0.036

PTMS (UniProt F5GXR3)
inactive: defactinib 0.06

PTPRB isoform 3 (UniProt P23467)
inactive: [3] 0.057 | alisertib 0 | [1] -0.196 | gefitinib -0.04 | lapatinib -0.034 | pictilisib -0.484 | duvelisib 0.172 | bafetinib -0.69

PTMA isoform 2 (UniProt P06454)
inactive: pictilisib -0.053 | bafetinib -0.02

PSAP isoform 2 (UniProt P07602)
inactive: [2] -0.169

PTGER3 isoform 2 (UniProt P43115)
inactive: [1] 0.141 | lapatinib 0 | crizotinib 0.154 | doramapimod -0.095

PTP4A3 (UniProt O75365)
inactive: [2] 0.131 | defactinib -0.076 | [3] 0.134 | encorafenib -0.09 | [4] 0.276 | [1] -0.147 | lapatinib -0.061 | crizotinib -0.041 | duvelisib 0.361 | tozasertib 0.112 | doramapimod -0.12

PTPN14 (UniProt Q15678)
inactive: encorafenib -0.046 | [4] 0.049 | crizotinib -0.123 | tozasertib -0.073 | doramapimod 0.063

PTPA (UniProt Q5T949)
inactive: alisertib 0.106 | [1] 0.124 | gefitinib -0.173 | lapatinib 0.047

PTPN18 (UniProt Q99952)
inactive: Tubastatin A -0.029 | [2] 0.013 | defactinib -0.045 | [3] 0.142 | encorafenib 0.013 | [4] 0.145 | alisertib 0.001 | [1] 0.045 | gefitinib 0.006 | lapatinib 0.113 | pictilisib -0.299 | crizotinib -0.017 | duvelisib 0.01 | tozasertib -0.08 | doramapimod -0.031 | bafetinib -0.094
